Test results published in article PMC4868690.

Columns and labels:
Test in all cases: co-IP; Sa3 cells stably expressing EGFP-Rab23 forms lysed in IP and westernblot lysis buffer; anti-EGFP antibody 6 h, A/G plus beads overnight, five washes; immunoblot for endogenous partners
EGFP-Rab23 S23N (human) = target: T1, EGFP-Rab23 S23N (human) (UniProt Q9ULC3)
T1 sequence: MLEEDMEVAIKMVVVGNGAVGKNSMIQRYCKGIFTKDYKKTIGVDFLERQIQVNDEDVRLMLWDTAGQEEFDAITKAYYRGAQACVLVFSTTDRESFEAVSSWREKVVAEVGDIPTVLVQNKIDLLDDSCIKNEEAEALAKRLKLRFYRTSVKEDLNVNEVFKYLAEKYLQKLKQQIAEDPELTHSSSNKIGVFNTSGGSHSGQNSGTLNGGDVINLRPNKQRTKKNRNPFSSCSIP

EGFP-Rab23 Q68L (human) = target: T2, EGFP-Rab23 Q68L (human) (UniProt Q9ULC3)
T2 sequence: T1 sequence with N23S, Q68L

EGFP-Rab23 WT (human) = target: T3, EGFP-Rab23 WT (human) (UniProt Q9ULC3)
T3 sequence: T1 sequence with N23S

Measured: binding

Rab5 (human (endogenous in Sa3))
no binding: EGFP-Rab23 S23N (human) | EGFP-Rab23 Q68L (human) | EGFP-Rab23 WT (human)

Residue numbers refer to the chain shown, from its start. No constants are given. Whether binding was seen depends on the method and setting. In cells and extracts the contact can be indirect. Sequences can lack the tags named with a protein.
